# In PubChem BioAssay AID504444 (National Center for Advancing Translational Sciences (NCATS), 2011):
# Among all 360,000 compounds or so, about 7,500 (2.1%) were called active. Inconclusive means that the source gave no clear call. Such entries were picked first, then a sample of the others. The call rests on the fitted dose curve; in most records, active means well fitted inhibition curve with a large enough effect; inconclusive means small, poorly fitted or top-dose-only effect, or effect the other way; inactive means flat fitted curve, though single readings scatter. A potency beside an inconclusive call is a rough fit, not a confirmed value.
# Assay: Nrf2 qHTS screen for inhibitors; further: nearly all actives have a fitted effect of over 60% in size
# Settings: A549 ARE-Fluc reporter, luciferase luminescence, 18-24 h; activity change, negative = inhibition: at 46 µM (top of the series)
# In short: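 Nrf2 function is reported as luminescence of an ARE-controlled luciferase in A549 cells. Compounds were tested at several concentrations, and a CellTiter-Fluor read on the same wells flagged cytotoxicity.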
# On the % scale 0 is the no-effect control and ±100 the full control effect; potency means the concentration at half of the fitted maximal effect.
SMILES,Potency,"activity change, negative = inhibition"
O=C(CSc1nnc(-c2cccnc2)n1Cc1ccco1)N1c2ccccc2Sc2ccccc21,"inconclusive: 29.1 µM [falling, single point]",
CN(CCCC(=O)NCCc1ccccc1)S(=O)(=O)c1ccc([N+](=O)[O-])cc1,"inconclusive: 32.6 µM [falling, partial curve, poor fit]",
COCCCn1c(=N)c(C(=O)NC2CCCCC2)cc2c(=O)n3cc(C)ccc3nc21,,inactive: 7.97%
Cc1ccc(S(=O)(=O)N2CCOCC2)cc1NC(=O)C(c1ccc(Cl)cc1)C(C)C (centres undefined),"inconclusive: 29.1 µM [falling, single point]",
COc1ccc(S(=O)(=O)N2CC3CCCN3c3cc(C(F)(F)F)ccc32)cc1 (centres undefined),"inconclusive: 20.6 µM [falling, single point]",
CC1CCCCN1CCCNC(=O)Cn1ncc2c3ccccc3n(C)c2c1=O (centres undefined),"inconclusive: 16.4 µM [activator, partial curve, poor fit]",
O=C(CN1C(=O)C2C3CCC(C3)C2C1=O)OCC(=O)c1ccccc1 (centres undefined),"inconclusive: 32.6 µM [activator, partial curve, poor fit]",
Cc1ccc(S(=O)(=O)c2cc3cc(C(=O)Nc4ccc(C)cc4C)ccc3oc2=O)cc1,,inactive: 11.6%
CCSc1ccc2c(c1)N(CCCN1CCN(C)CC1)c1ccccc1S2,,inactive: -4.27%
CC(=O)N1CCc2cc(Br)cc(S(=O)(=O)NCc3ccc(Cl)cc3)c21,"inconclusive: 29.1 µM [activator, single point]",
Nc1ccc2nc(Cc3ccccc3)[nH]c2c1,"inconclusive: 29.1 µM [activator, partial curve, poor fit]",
Cc1ccc(-c2nc(N/N=C/c3cccnc3)c3ccccc3n2)cc1,"inconclusive: 0.231 µM [activator, full curve, poor fit]",
Cc1ccnc(NS(=O)(=O)c2ccc(NS(=O)(=O)c3ccccc3)cc2)n1,"inconclusive: 29.1 µM [activator, partial curve, poor fit]",
COc1cc(NC(=O)C2CCN(c3nc4ccccc4nc3C(F)(F)F)CC2)cc(OC)c1,,inactive: -28.2%
O=C(CCC(=O)N1CCN(S(=O)(=O)c2ccc(Cl)cc2)CC1)Nc1ccc(Cl)cc1Cl,"inconclusive: 29.1 µM [falling, single point]",
CCc1ccccc1N(CC)C(=O)C1CCN(c2ncnc3c2nc2n3CCCCC2)CC1,inactive,
CCCOc1cccc(C2c3c(oc4ccc(F)cc4c3=O)C(=O)N2c2nc(C)c(C(C)=O)s2)c1 (centres undefined),,inactive: -3.1%
O=S(=O)(c1ccc2c(c1)nc(COc1ccc(Cl)cc1)n2CC1CCCO1)N1CCOCC1 (centres undefined),active: 10.3 µM,
O=c1[nH]c(NCc2ccccc2)nc2c1CCCC2,"inconclusive: 14.6 µM [falling, partial curve, poor fit]",
CCN(CC)CCN(C(=O)c1ccc2ncsc2c1)c1nc2cc3c(cc2s1)OCO3,"inconclusive: 4.11 µM [activator, partial curve]",
O=C(CN1CCN(C(=O)c2ccco2)CC1)Nc1cccc(S(=O)(=O)N2CCCC2)c1,"inconclusive: 5.8 µM [falling, full curve, poor fit]",
COc1ccc(CN2CCC(c3nc4ccc(Cl)cc4[nH]3)CC2)cc1,"inconclusive: 0.82 µM [falling, full curve]",

# Ordered by formula weight (largest number first): part of the list above.
SMILES,Potency,"activity change, negative = inhibition"
O=C(CSc1nnc(-c2cccnc2)n1Cc1ccco1)N1c2ccccc2Sc2ccccc21,"inconclusive: 29.1 µM [falling, single point]",
CCCOc1cccc(C2c3c(oc4ccc(F)cc4c3=O)C(=O)N2c2nc(C)c(C(C)=O)s2)c1 (centres undefined),,inactive: -3.1%
O=S(=O)(c1ccc2c(c1)nc(COc1ccc(Cl)cc1)n2CC1CCCO1)N1CCOCC1 (centres undefined),active: 10.3 µM,
Cc1ccc(S(=O)(=O)N2CCOCC2)cc1NC(=O)C(c1ccc(Cl)cc1)C(C)C (centres undefined),"inconclusive: 29.1 µM [falling, single point]",
CCc1ccccc1N(CC)C(=O)C1CCN(c2ncnc3c2nc2n3CCCCC2)CC1,inactive,
COc1ccc(S(=O)(=O)N2CC3CCCN3c3cc(C(F)(F)F)ccc32)cc1 (centres undefined),"inconclusive: 20.6 µM [falling, single point]",
CN(CCCC(=O)NCCc1ccccc1)S(=O)(=O)c1ccc([N+](=O)[O-])cc1,"inconclusive: 32.6 µM [falling, partial curve, poor fit]",
Cc1ccnc(NS(=O)(=O)c2ccc(NS(=O)(=O)c3ccccc3)cc2)n1,"inconclusive: 29.1 µM [activator, partial curve, poor fit]",
CCSc1ccc2c(c1)N(CCCN1CCN(C)CC1)c1ccccc1S2,,inactive: -4.27%
CC1CCCCN1CCCNC(=O)Cn1ncc2c3ccccc3n(C)c2c1=O (centres undefined),"inconclusive: 16.4 µM [activator, partial curve, poor fit]",
COc1ccc(CN2CCC(c3nc4ccc(Cl)cc4[nH]3)CC2)cc1,"inconclusive: 0.82 µM [falling, full curve]",
O=C(CN1C(=O)C2C3CCC(C3)C2C1=O)OCC(=O)c1ccccc1 (centres undefined),"inconclusive: 32.6 µM [activator, partial curve, poor fit]",
Cc1ccc(-c2nc(N/N=C/c3cccnc3)c3ccccc3n2)cc1,"inconclusive: 0.231 µM [activator, full curve, poor fit]",
Nc1ccc2nc(Cc3ccccc3)[nH]c2c1,"inconclusive: 29.1 µM [activator, partial curve, poor fit]",

# More structures follow:

SMILES,Potency,"activity change, negative = inhibition"
COC(=O)c1ccccc1NC(=O)c1cc[n+]([O-])cc1,"inconclusive: 16.4 µM [falling, single point]",
O=c1[nH]c(SCc2cccc(Cl)c2)nc2[nH]ncc12,"inconclusive: 20.6 µM [falling, single point]",
C=CCN1C(=O)C(CC(=O)Nc2ccc(OCCC)cc2)N(CCCN2CCN(Cc3ccccc3)CC2)C1=S (centres undefined),active: 18.4 µM,
COc1ccc(C(=O)/C=C/Nc2ccccn2)c(OC)c1,"inconclusive: 10.3 µM [activator, partial curve]",
O=C(Nc1ccc2c(c1)nc1n2CCN(Cc2ccccc2)C1)NC1CCCCC1,"inconclusive: 1.84 µM [falling, partial curve, poor fit]",
CCOC(=O)c1sc(NC(=O)C(C)C)c(C#N)c1C,"inconclusive: 13 µM [falling, partial curve]",
Cc1ccc(S(=O)(=O)N2CCCCC2)cc1NC(=O)CSc1nnnn1C,"inconclusive: 5.17 µM [activator, partial curve, poor fit]",
CC(C)Oc1cc(NC(=O)CS(=O)CC(=O)Nc2cccc(C(F)(F)F)c2)c(Cl)cc1Cl (centres undefined),"inconclusive: 29.1 µM [falling, single point]",
O=C(CCCC(=O)NN=Cc1ccccc1Cl)NN=Cc1ccccc1Cl,"inconclusive: 11.6 µM [falling, partial curve, poor fit]",
CCn1c(SCC(=O)N2CCN(S(=O)(=O)c3ccccc3)CC2)nnc1-c1cccs1,"inconclusive: 1.64 µM [falling, partial curve, poor fit]",
COc1ccc(C(=O)Cn2c(C(=O)/C=C/c3ccccc3)nc3ccccc32)cc1,"inconclusive: 25.9 µM [falling, partial curve]",
Nc1ccn([C@@H]2O[C@H](CO)[C@@H](O)[C@H]2O)c(=O)n1,,inactive: -16.3%
Oc1[nH]c2ccccc2c1N=Nc1ccc(F)cc1,"inconclusive: 20.6 µM [activator, partial curve]",
COc1ccc(C2CC(c3cccs3)=NN2C(=S)Nc2ccccc2)cc1OC (centres undefined),"inconclusive: 9.2 µM [falling, partial curve, poor fit]",
CN(c1cccc(NC(=O)Nc2ccc(Cl)cc2)c1)S(C)(=O)=O,"inconclusive: 16.4 µM [falling, partial curve]",
Cc1ccc(-n2nc3c(=O)n(C(C)C(=O)NCc4ccc5c(c4)OCO5)nc(C)c3c2C)cc1 (centres undefined),"inconclusive: 23.1 µM [falling, single point]",
CC(=O)N1N=C(c2ccccc2)CC1c1ccccc1 (centres undefined),"inconclusive: 29.1 µM [activator, partial curve, poor fit]",
O=C(N/N=C/c1ccc([N+](=O)[O-])o1)C(O)c1ccccc1 (centres undefined),"inconclusive: 29.1 µM [falling, single point]",
Cc1cccc(N2CCN(C(=O)c3cc4ccc5cccnc5c4[nH]3)CC2C)c1 (centres undefined),"inconclusive: 29.1 µM [falling, single point]",
COCCc1nn2c(=O)cc(COC(=O)c3ccc(Br)cc3)nc2s1,"inconclusive: 29.1 µM [activator, single point]",
O=C(c1cc2cc(F)ccc2[nH]1)N1CCN(c2cccc(Cl)c2)CC1,,inactive: -3.85%
O=C(COC(=O)CNS(=O)(=O)c1cccc(Br)c1)NC(=O)Nc1ccc2c(c1)OCCO2,"inconclusive: 7.31 µM [activator, partial curve, poor fit]",

SMILES,Potency,"activity change, negative = inhibition"
O=C(NCC(=O)N1CCCCC1)c1ccc2ccccc2c1,"inconclusive: 1.3 µM [activator, full curve]",
COc1ccc(-c2ccc(-c3cc(=O)oc4cc(OC)c(OC)c(OC)c34)cc2)cc1,"inconclusive: 0.0052 µM [falling, full curve, poor fit]",
CCCCCCn1ccc(=N)cc1,"inconclusive: 0.206 µM [falling, full curve, poor fit]",
CCOc1ccc(-c2nc(C#N)c(N3CCN(CC)CC3)o2)cc1,,inactive: -5.94%
Cc1cccc(NS(=O)(=O)c2cc(C(=O)OC(C)C(=O)NCc3ccc4c(c3)OCO4)ccc2C)c1 (centres undefined),"inconclusive: 20.6 µM [falling, partial curve]",
CCc1ccc(-c2nc(CS(=O)CC(=O)NCCCN3CCOCC3)c(C)o2)cc1 (centres undefined),,inactive: 22.6%
Cc1cc(OCC(=O)Nc2ccncc2)ccc1Cl,"inconclusive: 20.6 µM [falling, single point]",
COc1ccc(N/C=C\C(=O)c2ccc3ccccc3c2)cc1,"inconclusive: 2.31 µM [activator, full curve, poor fit]",
COC(=O)CC1C(=O)NC2CCCCC2N1C(=O)CCl (centres undefined),"inconclusive: 16.4 µM [falling, partial curve, poor fit]",
CCCCc1nn2c(=O)cc(COC(=O)c3ccccc3C)nc2s1,"inconclusive: 14.6 µM [activator, partial curve, poor fit]",
Cc1ccc(-n2nc3c(=O)n(C(C)C(=O)NCc4ccccc4C)nc(C)c3c2C)cc1 (centres undefined),active: 5.17 µM,
Cc1ccc2nc(Cl)c(/C=N/Nc3ccc(C(=O)O)cc3)cc2c1,"inconclusive: 14.6 µM [falling, single point]",
CCc1ccccc1NC(=O)NC(CC)Cn1nnc2ccccc2c1=O (centres undefined),"inconclusive: 23.1 µM [activator, partial curve, poor fit]",
COc1ccc(C(=O)C(C)Oc2cccc(NC(=O)c3cccc([N+](=O)[O-])c3)c2)cc1 (centres undefined),active: 25.9 µM,
Cc1[nH]c2ccccc2c1/C=N/NC(=O)C1CC1(c1ccccc1)c1ccccc1 (centres undefined),"inconclusive: 23.1 µM [falling, partial curve, poor fit]",
CN(C)C(=O)CSc1ccc(S(=O)(=O)N2CCCC2)cn1,,inactive: 1.44%
CC(C)C(=O)Nc1sc2c(c1-c1nc3ccccc3[nH]1)CCCC2,"inconclusive: 1.84 µM [activator, partial curve, poor fit]",
Cc1ccc2oc(=O)c3cc(C(=O)NCCc4ccc(Cl)cc4)sc3c2c1,,inactive: 18.4%
Cc1ccc(N2CC(C)Cn3c2nc2c3c(=O)[nH]c(=O)n2C)cc1C (centres undefined),"inconclusive: 23.1 µM [falling, partial curve, poor fit]",
CN(C)C1(CNC(=O)C2CCC(=O)N(Cc3ccc(Cl)cc3)C2)CCCCC1 (centres undefined),,inactive: -7.62%
